# These are yes or no findings as the source states them, for the method shown. In cells and extracts the contact can be indirect. Some binding calls cover weakened binding; strength is not graded here.
# The chains behind the UniProt entries cited, without tags or fusion partners.
# UniProt Q9HC29: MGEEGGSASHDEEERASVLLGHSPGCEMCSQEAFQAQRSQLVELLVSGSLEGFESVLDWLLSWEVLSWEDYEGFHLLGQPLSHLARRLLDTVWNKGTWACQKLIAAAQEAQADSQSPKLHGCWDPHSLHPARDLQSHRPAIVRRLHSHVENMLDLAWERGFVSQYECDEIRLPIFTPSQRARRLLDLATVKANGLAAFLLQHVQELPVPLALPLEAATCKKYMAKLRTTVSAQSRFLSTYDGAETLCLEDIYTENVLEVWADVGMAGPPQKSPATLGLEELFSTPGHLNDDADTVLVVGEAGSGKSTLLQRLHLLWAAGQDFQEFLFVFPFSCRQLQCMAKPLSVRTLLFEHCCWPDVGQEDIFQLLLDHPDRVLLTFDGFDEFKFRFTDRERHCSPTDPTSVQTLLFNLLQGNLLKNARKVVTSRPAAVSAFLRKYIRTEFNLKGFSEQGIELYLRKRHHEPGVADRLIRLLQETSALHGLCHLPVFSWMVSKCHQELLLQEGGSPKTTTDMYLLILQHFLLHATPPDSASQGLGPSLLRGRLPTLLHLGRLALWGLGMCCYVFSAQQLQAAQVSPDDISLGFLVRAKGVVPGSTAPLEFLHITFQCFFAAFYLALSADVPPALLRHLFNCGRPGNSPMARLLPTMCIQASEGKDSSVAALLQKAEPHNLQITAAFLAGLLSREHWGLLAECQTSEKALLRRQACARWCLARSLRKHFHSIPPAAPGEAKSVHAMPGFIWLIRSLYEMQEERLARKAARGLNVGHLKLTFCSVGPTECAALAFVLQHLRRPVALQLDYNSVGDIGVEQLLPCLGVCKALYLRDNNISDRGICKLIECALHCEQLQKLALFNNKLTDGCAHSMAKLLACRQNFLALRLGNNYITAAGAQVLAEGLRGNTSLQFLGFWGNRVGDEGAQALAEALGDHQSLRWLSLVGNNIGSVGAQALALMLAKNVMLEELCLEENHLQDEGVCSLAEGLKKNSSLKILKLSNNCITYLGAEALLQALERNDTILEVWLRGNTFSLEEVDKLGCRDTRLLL
# Target: Nucleotide-binding oligomerization domain-containing protein 2 (human (endogenous in A549)) (UniProt Q9HC29)
# Experiment: co-IP; A549 cell lysate (RIPA buffer), pre-incubated with protein A agarose beads at 4 °C for 4 h; antibodies against CCN4 or Nod2, or IgG as control, with protein A agarose overnight at 4 °C; immunoblot
binder,measurement,value
"Cellular Communication Network Factor 4 (protein, UniProt O95388 23-367) TALSPAPTTMDFTPAPLEDTSSRPQFCKWPCECPPSPPRCPLGVSLITDGCECCKMCAQQLGDNCTEAAICDPHRGLYCDYSGDRPRYAIGVCAQVVGVGCVLDGVRYNNGQSFQPNCKYNCTCIDGAVGCTPLCLRVRPPRLWCPHPRRVSIPGHCCEQWVCEDDAKRPRKTAPRDTGAFDAVGEVEAWHRNCIAYTSPWSPCSTSCGLGVSTRISNVNAQCWPEQESRLCNLRPCDVDIHTLIKAGKKCLAVYQPEASMNFTLAGCISTRSYQPKYCGVCMDNRCCIPYKSKTIDVSFQCPDGLGFSRQVLWINACFCNLSCRNPNDIFADLESYPDFSEIAN",binding,binds

# — article PMC10349017
